Results are given in words; binding and its absence hold for the method and conditions named. In cells and extracts the contact can be indirect. Some binding calls cover weakened binding; strength is not graded here.
Legend:
[1] = biological target: T1, TRAF2 (mouse (endogenous in BMDM-derived TAM)) (UniProt P39429); assay: co-IP; immunoprecipitation with LC3 and TRAF2 antibody from TAM after baicalin intervention (Supplementary Figure S6)
T1 sequence: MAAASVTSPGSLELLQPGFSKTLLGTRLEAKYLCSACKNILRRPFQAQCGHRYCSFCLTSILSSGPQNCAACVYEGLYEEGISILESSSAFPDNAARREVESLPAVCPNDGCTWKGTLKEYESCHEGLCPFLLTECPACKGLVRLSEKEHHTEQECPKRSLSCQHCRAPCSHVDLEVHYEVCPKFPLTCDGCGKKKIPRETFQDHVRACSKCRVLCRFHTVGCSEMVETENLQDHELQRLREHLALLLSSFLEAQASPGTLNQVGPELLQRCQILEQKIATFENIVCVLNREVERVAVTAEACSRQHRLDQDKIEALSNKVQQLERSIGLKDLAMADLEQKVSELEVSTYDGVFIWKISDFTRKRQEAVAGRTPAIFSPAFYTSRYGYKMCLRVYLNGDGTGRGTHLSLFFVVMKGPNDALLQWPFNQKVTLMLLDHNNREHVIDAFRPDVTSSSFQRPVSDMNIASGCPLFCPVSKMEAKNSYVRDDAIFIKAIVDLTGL

Amino acid sequences for entries named in this document (tags omitted).
UniProt Q99J83: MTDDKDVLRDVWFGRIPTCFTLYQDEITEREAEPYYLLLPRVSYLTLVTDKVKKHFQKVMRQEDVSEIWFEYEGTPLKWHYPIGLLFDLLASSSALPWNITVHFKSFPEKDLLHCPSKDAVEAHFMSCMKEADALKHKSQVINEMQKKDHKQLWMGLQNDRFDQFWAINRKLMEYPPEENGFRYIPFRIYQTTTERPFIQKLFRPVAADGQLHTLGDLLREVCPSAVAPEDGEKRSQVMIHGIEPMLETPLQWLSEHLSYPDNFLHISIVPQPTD
UniProt Q9Z1E3: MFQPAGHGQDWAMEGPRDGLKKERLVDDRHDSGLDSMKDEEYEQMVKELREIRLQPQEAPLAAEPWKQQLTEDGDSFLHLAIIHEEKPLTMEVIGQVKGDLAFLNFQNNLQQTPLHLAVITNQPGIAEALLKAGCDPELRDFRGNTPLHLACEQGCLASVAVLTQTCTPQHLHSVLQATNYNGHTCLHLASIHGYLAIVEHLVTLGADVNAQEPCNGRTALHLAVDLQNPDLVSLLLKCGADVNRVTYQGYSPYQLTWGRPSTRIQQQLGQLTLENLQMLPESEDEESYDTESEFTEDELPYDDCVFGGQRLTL

[2] = biological target: T2, RelB (mouse (endogenous in BMDM-derived TAM)) (UniProt Q04863); assay: co-IP; immunoprecipitation with RelB antibody from TAM treated with or without baicalin; immunoblotting; IP samples normalised by RelB
T2 sequence: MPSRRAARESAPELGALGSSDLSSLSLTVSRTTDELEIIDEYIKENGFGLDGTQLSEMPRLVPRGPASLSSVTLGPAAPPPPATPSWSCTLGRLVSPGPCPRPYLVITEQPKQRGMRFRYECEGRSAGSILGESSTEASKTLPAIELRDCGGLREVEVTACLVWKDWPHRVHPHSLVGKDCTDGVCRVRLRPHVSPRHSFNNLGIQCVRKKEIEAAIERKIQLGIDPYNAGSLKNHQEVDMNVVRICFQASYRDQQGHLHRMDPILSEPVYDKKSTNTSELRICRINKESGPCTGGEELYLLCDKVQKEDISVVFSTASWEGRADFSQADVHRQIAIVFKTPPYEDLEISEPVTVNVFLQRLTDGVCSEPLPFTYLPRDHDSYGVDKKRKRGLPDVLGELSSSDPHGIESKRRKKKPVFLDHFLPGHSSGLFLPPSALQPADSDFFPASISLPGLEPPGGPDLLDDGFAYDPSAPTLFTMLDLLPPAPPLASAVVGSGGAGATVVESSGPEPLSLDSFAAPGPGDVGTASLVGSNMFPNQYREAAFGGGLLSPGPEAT

[3] = biological target: T2, RelB (mouse (endogenous in BMDM-derived TAM)); assay: co-IP; immunoprecipitation with RelB antibody from baicalin-treated TAM; immunoblotting; IP samples normalised by RelB
[4] = biological target: T2, RelB (mouse (endogenous in BMDM-derived TAM)); assay: co-IP; immunoprecipitation with RelB antibody from TAM treated with or without baicalin; immunoblotting; IP samples normalised by RelB; remark: listed apart in the source

Atg5 (from UniProt Q99J83 1-275)
binding [1]: binds

IκBα (from UniProt Q9Z1E3 1-314)
binding [2]: binds
binding [3]: no binding (condition: with baicalin treatment)

B1: p52 (protein, UniProt Q9WTK5 1-454)
chain: MDNCYDPGLDGIPEYDDFEFSPSIVEPKDPAPETADGPYLVIVEQPKQRGFRFRYGCEGPSHGGLPGASSEKGRKTYPTVKICNYEGPAKIEVDLVTHSDPPRAHAHSLVGKQCSELGVCAVSVGPKDMTAQFNNLGVLHVTKKNMMEIMIQKLQRQRLRSKPQGLTEAERRELEQEAKELKKVMDLSIVRLRFSAFLRASDGSFSLPLKPVISQPIHDSKSPGASNLKISRMDKTAGSVRGGDEVYLLCDKVQKDDIEVRFYEDDENGWQAFGDFSPTDVHKQYAIVFRTPPYHKMKIERPVTVFLQLKRKRGGDVSDSKQFTYYPLVEDKEEVQRKRRKALPTFSQPFGGGSHMGGGSGGSAGGYGGAGGGGSLGFFSSSLAYNPYQSGAAPMGCYPGGGGGAQMAGSRRDTDAGEGAEEPRTPPEAPQGEPQALDTLQRAREYNARLFGLA
binding [4]: binds
